Results taken from patent US20200291096A1 (priority 2017, published 2020).

Assay: general procedure: Fmoc solid-phase peptide synthesis; Chlorotrityl resin (1.1 mmol/g); HBTU, DIPEA
Conditions: conjugation step

Substance	conjugation yield [%]	final purity (method not given) [%]
PEPTIDE1{[Cap-I-65].[bAla].[Sar].[Sar].[Sar].[Sar].[Sar].[Sar].[Sar].[Sar].[Sar].[Sar].A.C.[dA].N.E.[1Nal].[dA].C.E.D.F.Y.D.[tBuGly].C.[am]}|CHEM1{[TBMB]}$PEPTIDE1,CHEM1,14:R3-1:R1|PEPTIDE1,CHEM1,20:R3-1:R2|PEPTIDE1,CHEM1,27:R3-1:R3$$$V2.0	12.37	93.54
PEPTIDE1{[Cap-I-66].[bAla].[Sar].[Sar].[Sar].[Sar].[Sar].[Sar].[Sar].[Sar].[Sar].[Sar].A.C.[dA].N.E.[1Nal].[dA].C.E.D.F.Y.D.[tBuGly].C.[am]}|CHEM1{[TBMB]}$PEPTIDE1,CHEM1,14:R3-1:R1|PEPTIDE1,CHEM1,20:R3-1:R2|PEPTIDE1,CHEM1,27:R3-1:R3$$$V2.0	11.95	99.06
PEPTIDE1{[Cap-I-68].[bAla].[Sar].[Sar].[Sar].[Sar].[Sar].[Sar].[Sar].[Sar].[Sar].[Sar].A.C.[dA].N.E.[1Nal].[dA].C.E.D.F.Y.D.[tBuGly].C.[am]}|CHEM1{[TBMB]}$PEPTIDE1,CHEM1,14:R3-1:R1|PEPTIDE1,CHEM1,20:R3-1:R2|PEPTIDE1,CHEM1,27:R3-1:R3$$$V2.0		96.2

HELM strings list residues between dots; [ac] is acetyl, [am] amide, other brackets name non-standard units.
